Test results as given in PubChem BioAssay AID1259354 (Paczesny and Yang Labs, IUPUI and University of Michigan, 2018).
“And” between values parts separate entries of the source, which are not always exact repeats. Equal values may be shown once. Hit rate of the full screen: of about 78,000 compounds, about 1,800 (2.3%) were called active. Inconclusive means that the source gave no clear call. Such entries were picked first, then a sample of the others. Cut-off read from the data, not from the text of the source: active = inhibition above about 30%; inconclusive = mostly about 10% to 28%; inactive = weaker than that.

By UniProt entry, the sequences of proteins in these tests, tags left out. Where a name states a change or a piece, a line headed by the entry shows the natural chain unless it says otherwise.
UniProt Q01638: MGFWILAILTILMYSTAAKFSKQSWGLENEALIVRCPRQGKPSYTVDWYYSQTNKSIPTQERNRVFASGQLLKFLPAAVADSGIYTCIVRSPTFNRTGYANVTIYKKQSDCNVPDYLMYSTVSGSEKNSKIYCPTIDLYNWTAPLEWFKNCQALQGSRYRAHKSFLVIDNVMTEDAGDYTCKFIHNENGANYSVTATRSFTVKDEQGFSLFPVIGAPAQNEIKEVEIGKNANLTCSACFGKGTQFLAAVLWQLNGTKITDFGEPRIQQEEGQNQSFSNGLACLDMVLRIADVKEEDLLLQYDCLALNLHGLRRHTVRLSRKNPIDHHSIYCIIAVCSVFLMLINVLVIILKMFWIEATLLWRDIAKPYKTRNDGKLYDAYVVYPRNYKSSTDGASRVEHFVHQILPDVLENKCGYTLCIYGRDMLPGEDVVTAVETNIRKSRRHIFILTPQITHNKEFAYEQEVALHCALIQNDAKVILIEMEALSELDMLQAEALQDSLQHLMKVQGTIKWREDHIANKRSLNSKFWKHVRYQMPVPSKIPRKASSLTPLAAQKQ

What follows are compounds tested against Interleukin-1 receptor-like 1 (Homo sapiens) (UniProt Q01638) (assay: blocks human ST2 binding to IL-33, primary screen, biochemical, AlphaLISA (AID 1259354)). Settings: AlphaLISA ST2-Fc/biotin-IL-33 interaction, 1 h; at 17 µM, hits give high values.
With `CCOC(=O)c1c(NC(=O)c2ccccc2)sc2c1CCN(C(C)C)C2` the inhibition was “inactive”.
With `CC(=O)Nc1ccc(CN2CCCCC2CN2CCOCC2)cc1` (stereo not drawn) the inhibition was “inactive”.
For `COc1ccc(Cl)cc1NC(=O)CCC1CCCN(C(=O)c2csc(C)n2)C1` (stereo not drawn), the inhibition was “inactive”.
With `CCCCNc1cc(C(=O)O)cc(S(N)(=O)=O)c1Oc1ccccc1` the inhibition was inconclusive: 17%.
`CNC(=O)c1c(NC(=O)c2cccc(C)c2)sc2c1CCC2` was tested, and the inhibition was inconclusive: 17%.
`Cc1ccc(N=Cc2nc(-c3ccc(Br)cc3)oc2O)c([N+](=O)[O-])c1` was tested, and the inhibition was inconclusive: 15%.
In the case of `CCN(CCCNC(=O)c1cc2cc3ccc(OC)cc3nc2s1)c1ccccc1`, the inhibition is reported as active: 31%.
`Cc1nnc(CN2CCCC(CCc3ccccc3C(F)(F)F)C2)o1` (stereo not drawn) was tested, and the inhibition was inconclusive: 11%.
For `COc1ccc(C)cc1N(CC(=O)Nc1cccnc1)S(C)(=O)=O`, the inhibition was “inactive”.
With `COc1ccc(-n2nc3c(c2NC(=O)c2c(F)cccc2F)CSC3)cc1` the inhibition was inconclusive: 21%.
For `CN(C)c1ccc(-c2nnc([C@H]3CCN(Cc4ccc(CO)o4)C3)o2)cc1`, the inhibition was “inactive”.
With `OCC1(O)CCCN(Cc2ccccc2-c2ccccc2)CC1` (stereo not drawn) the inhibition was inconclusive: 11%.
In the case of `Cc1ccc(C(=O)NC(Nc2ccccc2)C(=O)c2ccccc2)cc1` (stereo not drawn), the inhibition is reported as inconclusive: 13%.
`CCOc1c(C)cc(S(=O)(=O)N2CCN(c3nc(C)cc(Nc4ccc(OC)cc4)n3)CC2)cc1C` was tested, and the inhibition was inconclusive: 28%.
With `COc1ccc(-c2c3c(=O)n(C)c(=O)n(C)c3cn2-c2cccc([N+](=O)[O-])c2)cc1` the inhibition was “inactive”.
With `CCN(Cc1ccccc1)S(=O)(=O)c1ccc(C(=O)Nc2nnc(-c3cccs3)o2)cc1` the inhibition was inconclusive: 13%.
For `CC(C)C[C@@H](N)C(=O)NCc1ccc2nsnc2c1`, the inhibition was inconclusive: 20%.
With `COCCNC(=O)C1CCCN(C2CCN(Cc3nc(C)c(C)s3)CC2)C1` (stereo not drawn) the inhibition was inconclusive: 13%.
With `O=C(C1c2ccccc2Oc2ccccc21)N1CCN=C1SCc1ccccc1F` the inhibition was inconclusive: 16% and inconclusive: 11%.
`CC(C)Oc1ccc(C(=O)Nc2ccc(-c3nc4ncccc4o3)cc2)cc1` was tested, and the inhibition was inconclusive: 26%.
For `Cc1nnc(Sc2cc(C(=O)NCC3CCCO3)c3ccccc3n2)s1` (stereo not drawn), the inhibition was inconclusive: 13%.
For `Cc1ccc(C)c(NC(=O)CSc2nc3c(cnn3-c3ccc(F)cc3)c(=O)[nH]2)c1`, the inhibition was inconclusive: 12%.
With `CCCN(CCO)Cc1c(F)cccc1F` the inhibition was inconclusive: 17%.
`CC(C)c1nccn1Cc1cc(C(=O)NCC2OCCc3ccccc32)n[nH]1` (stereo not drawn) was tested, and the inhibition was “inactive”.
For `Cn1c(SCC(=O)NC2CC2)nnc1-c1ccc(NC(=O)c2ccccc2Cl)cc1`, the inhibition was “inactive”.
`CC(=O)c1cccc(Nc2ncnc3c2cnn3-c2ccc(C)cc2C)c1` was tested, and the inhibition was “inactive”.
In the case of `Cc1cccc(-c2cccc(C(=O)O)c2)c1`, the inhibition is reported as inconclusive: 10%.
For `COc1cc(C(=O)Nc2ccc(-c3nc4ccccc4o3)cc2)ccc1[N+](=O)[O-]`, the inhibition was inconclusive: 23%.
For `O=C(O)CCC(=O)N1N=C(c2cccs2)CC1c1ccc(Br)cc1` (stereo not drawn), the inhibition was inconclusive: 11%.
`CSCCC(NS(=O)(=O)c1cccc2nsnc12)C(=O)O` (stereo not drawn) was tested, and the inhibition was “inactive”.
With `Cc1nc(CCN)cc(N2CCN(c3ccncc3C)CC2)n1` the inhibition was “inactive”.
With `O=[N+]([O-])c1ccccc1CN1CCc2ccccc2C1` the inhibition was inconclusive: 16%.
With `Cc1cccc2nc(CNCc3cn(-c4ccc(F)cc4)nc3-c3ccccc3Cl)cn12` the inhibition was inconclusive: 29%.
In the case of `Cc1ccc(Cl)cc1N1CCN(C(=O)Cc2c(C(=O)O)[nH]c3ccc(Cl)cc23)CC1`, the inhibition is reported as inconclusive: 15%.
For `CCSc1nc2nc3c(cc2c(=O)n1-c1ccccc1C)COC(C)(C)C3`, the inhibition was inconclusive: 26%.
For `COc1ccc(-c2ccc(C(=O)NCCCc3c(C)noc3C)cn2)cn1`, the inhibition was inconclusive: 10%.
With `CC1=NOC(C(=O)NCCC(=O)Nc2ccc(C)cc2C)C1` (stereo not drawn) the inhibition was inconclusive: 11%.
With `O=C(O)c1ccccc1-c1ccccc1C(=O)Nc1nc2ccccc2s1` the inhibition was inconclusive: 21%.
With `CC(C)SCCNC(=O)c1cnn2ccn(C)c12` the inhibition was inconclusive: 13%.
In the case of `CNC(C)(C)C(=O)NCC1CCN(Cc2cc3ccccc3o2)C1` (stereo not drawn), the inhibition is reported as inconclusive: 22%.
With `Cc1ccc2[nH]cc(-c3cccc(-n4cnnc4)c3)c2c1` the inhibition was inconclusive: 18%.
`CC(=O)c1ccc(N=Cc2cc(Cl)cc(Cl)c2O)cc1` was tested, and the inhibition was “inactive”.
`COc1ccc(N2CCN(C(=O)c3cccc([N+](=O)[O-])c3)CC2)cc1` was tested, and the inhibition was inconclusive: 13%.
For `CC(C)(O)C#Cc1ccc(C(=O)NCc2csc(-c3ccccc3)n2)o1`, the inhibition was inconclusive: 11%.
With `O=C(c1ccccc1Oc1ccccc1)N1CC(c2cccnc2)C1` the inhibition was inconclusive: 18%.
For `COc1cc(NC(=O)c2cc3c(=O)oc4ccccc4c3s2)cc(OC)c1OC`, the inhibition was “inactive”.
In the case of `CCc1ccc(C2CC(c3ccccc3)Nc3ncnn32)cc1` (stereo not drawn), the inhibition is reported as “inactive”.
For `Cc1cccc(CN2CCN(C(=O)c3cn(-c4ccccc4)nn3)C(C)C2=O)c1` (stereo not drawn), the inhibition was inconclusive: 11%.
In the case of `Cc1ccc(NC(=O)CNC(C)CN2CCOCC2)c(F)c1` (stereo not drawn), the inhibition is reported as inconclusive: 10%.
For `CCN(CC)c1nc(-c2ccccc2O)nc2ccccc12`, the inhibition was inconclusive: 11%.
`CC1=NN(c2ccc(Cl)c(Cl)c2)C(=O)/C1=C/c1cccs1` was tested, and the inhibition was active: 54%.
For `Cn1cnnc1SCC(=O)N1N=C(c2ccc(Br)cc2)CC1c1ccc(F)cc1` (stereo not drawn), the inhibition was “inactive”.
With `Cc1cccc(-c2cn[nH]c2C2CCN(C(=O)c3cn4cccnc4n3)CC2)c1` the inhibition was inconclusive: 10%.
For `Cc1ccc2c(c1)C1C=CCC1C(c1ccccc1Cl)N2` (stereo not drawn), the inhibition was active: 33%.
For `CCC1=NOC(CNC(=O)Cc2c(C)nn(-c3ccccc3)c2C)C1` (stereo not drawn), the inhibition was inconclusive: 11%.
With `Cn1cc(CN2CC(OCc3cccnc3)CN(Cc3cccc4ccccc34)CC2=O)cn1` (stereo not drawn) the inhibition was inconclusive: 25%.
In the case of `COc1ccc(C2CC(=O)C3=C(C2)Nc2ccccc2NC3c2cccc(OC)c2OC)cc1` (stereo not drawn), the inhibition is reported as inconclusive: 15%.
In the case of `CC(c1ccc(-c2ccccc2CN2CCNCC2)cc1)N1CCOCC1` (stereo not drawn), the inhibition is reported as inconclusive: 23%.
With `COC(=O)C1=C(C)Nc2nc(SCc3ccccc3)[nH]c(=O)c2C1c1ccc(Cl)cc1` (stereo not drawn) the inhibition was inconclusive: 10%.
`CC1CCCN(Cc2cccc(C(=O)Nc3cc(C4CC4)nn3C)c2)C1` (stereo not drawn) was tested, and the inhibition was inconclusive: 12%.
In the case of `COc1ccc(C2SCCN2S(=O)(=O)c2ccc(Cl)c(Cl)c2)cc1OC` (stereo not drawn), the inhibition is reported as “inactive”.
For `CC(C)(CC(=O)O)CC(=O)N1C[C@@H]2C[C@H](C1)c1ccc(-c3cccc(C(F)(F)F)c3)c(=O)n1C2`, the inhibition was inconclusive: 10%.
For `CC(C)(C)c1[nH]nc2c1C(c1ccccc1F)C(C#N)=C(N)O2` (stereo not drawn), the inhibition was “inactive”.
For `Cc1c(Cl)c([N+](=O)[O-])cc([N+](=O)[O-])c1N1CCCC1`, the inhibition was active: 40%.
In the case of `Cc1cc(C(=O)N(C)Cc2nc3ccccc3n2C)cc(S(N)(=O)=O)c1C`, the inhibition is reported as “inactive”.
In the case of `C=CCN(CC=C)C(=O)CN1CCN[C@H]2CS(=O)(=O)C[C@H]21`, the inhibition is reported as “inactive”.
With `COc1ccc(/C=C/C(=O)O[C@H]2[C@@H]3C=CO[C@@H](O[C@@H]4O[C@H](CO)[C@@H](O)[C@H](O)[C@H]4O)[C@@H]3[C@@]3(CO)O[C@@H]23)cc1O` the inhibition was inconclusive: 13%.
In the case of `Cc1ccc(-c2csc(/C(C#N)=C/c3ccc(N(C)C)cc3)n2)cc1`, the inhibition is reported as inconclusive: 16%.
With `CCS(=O)(=O)c1ccc2oc(=O)c(C=C(O)c3ccc(Br)cc3)nc2c1` the inhibition was inconclusive: 13%.
`COc1ccc(-n2ncc3c2CC(C)(C)CC3NC(=O)C2=CC(=O)CC(C)(C)O2)cc1` (stereo not drawn) was tested, and the inhibition was inconclusive: 11%.
In the case of `Nc1ccc2oc(-c3cc(I)ccc3Cl)nc2c1`, the inhibition is reported as inconclusive: 10%.
With `CCN(CC)C(=O)c1cc2cc3ccc(OC)cc3nc2s1` the inhibition was inconclusive: 20%.
For `Cc1cc(N2CCC(C)CC2)nc2ccc(NC(=O)c3cncc(Br)c3)cc12`, the inhibition was inconclusive: 18%.
For `O=C(Cc1ccccc1)N1CCN=C1SCc1cccc(Cl)c1`, the inhibition was inconclusive: 11%.
With `C=CCN(Cc1ncccc1C(=O)O)C1CCCC1` the inhibition was “inactive”.
With `Cc1ccc(OCC(=O)N2CCC3(CC2)C(=O)N(C)c2ccccc23)cc1` the inhibition was inconclusive: 13%.
With `CN(C)c1ccc(/C=C2\N=C(c3ccccc3Cl)OC2=O)cc1` the inhibition was inconclusive: 25%.
For `COc1ccc(C2Nc3ccccc3NC3=C2C(=O)CCC3)c(OC)c1` (stereo not drawn), the inhibition was “inactive”.
With `COc1cccc(-c2ccc(C(=O)NC(C)c3nncn3C)o2)c1` (stereo not drawn) the inhibition was “inactive”.
For `CC1=C(C#N)c2nc(N)c(C#N)c(C)c2/C1=C\c1ccc(O)cc1`, the inhibition was “inactive”.
In the case of `Nc1ccc(Sc2ccccc2[N+](=O)[O-])cc1`, the inhibition is reported as inconclusive: 26%.
In the case of `FC(F)(F)c1cc(-c2ccc(Cl)cc2)nc(N2CCOCC2)n1`, the inhibition is reported as “inactive”.
For `CCN(CC)c1ccc(C2C(C(N)=O)=C(C)Nc3nc(SCc4ccccc4)nn32)cc1` (stereo not drawn), the inhibition was inconclusive: 18%.
In the case of `CCc1nnc(NC(=O)c2sc3cc(C)ccc3c2Cl)s1`, the inhibition is reported as “inactive”.
In the case of `Cc1ccc(-c2cnc3ccccc3n2)cc1[N+](=O)[O-]`, the inhibition is reported as “inactive”.
With `CCCCNC(=O)C1c2cc(OC)c(OC)cc2C(=O)N(C)C1c1ccc(OC)cc1` (stereo not drawn) the inhibition was “inactive”.
`COc1ccc(/C=C/CN2CCCC(OCc3ccccn3)C2)cc1` (stereo not drawn) was tested, and the inhibition was inconclusive: 10%.
With `COc1ccc(C(=O)Nc2ccc(N3CCCC3)cc2)cc1` the inhibition was active: 59%.
With `O[C@@H]1C[C@@H](c2nc(-c3ccccc3)no2)N(Cc2c[nH]c3ccccc23)C1` the inhibition was active: 38%.
`Fc1ccc(CN(Cc2ccncc2)Cc2cccc(-n3cccn3)c2)cc1` was tested, and the inhibition was inconclusive: 13%.
In the case of `Cc1cccc(C)c1OC1CN(C(=O)c2cnc3ccccn3c2=O)C1`, the inhibition is reported as inconclusive: 15%.
`COc1ccc(S(=O)(=O)NCc2nc3cccnc3n2Cc2ccccc2)cc1` was tested, and the inhibition was inconclusive: 11%.
In the case of `NC(=O)[C@H](CC1CCCCC1)NC(=O)[C@@H]1CN(S(=O)(=O)c2ccccc2)CCN1S(=O)(=O)c1ccccc1`, the inhibition is reported as inconclusive: 11%.
